Experimental data: PubChem BioAssay AID602196 (INSERM, 2012)

Test: 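Modifiers of cisplatin sensitivity in A549 cells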
Cell system: human A549 lung cancer cells
Knock-down reagent: siRNA pair against human genes
Duration: 48 h transfection before cisplatin; time from cisplatin to read-out not stated
Challenge: cisplatin at a dose killing half of control-siRNA cells; exact dose and duration not given
Read-out: 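Shift in cisplatin death relative to control siRNA, from -50 (all cells die) to +50 (no cells die); siRNAs harmful on their own scored 0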
Direction: two-siRNA summed score (-2 to +2): higher = both siRNAs protect from cisplatin killing; -2 means both sensitise; mean protection from cisplatin (shift in death): higher = protection from cisplatin killing
Hit rule: 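Each siRNA scores 0 if harmful alone by LDH or WST-1, otherwise +1 if it reduces and -1 if it increases cisplatin killing; a gene is active when both siRNAs agree (sum +2 or -2)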
Calls: active = both siRNAs shift cisplatin killing the same way; inactive = no consistent shift, or siRNA harmful alone
In all, the deposit lists about 23,000 reagents; shown is an unselected part. Of all reagents, 455 (2%) were called active. 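Active includes both protection and sensitisation; some change values fall well beyond the stated -50 to +50 range.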 Reagents against one gene are numbered here. Not all columns of the deposit are shown. Not given: the amount of reagent.

After knock-down of N4BP2L2 #1, the screen gave two-siRNA summed score (-2 to +2) = 0; mean protection from cisplatin (shift in death) (%) = -7.6; inactive.
With knock-down of N4BP2L2 #2, the record shows two-siRNA summed score (-2 to +2) = 0; mean protection from cisplatin (shift in death) (%) = 3.3; inactive.
Silencing of SECTM1 gave: two-siRNA summed score (-2 to +2) = 0; mean protection from cisplatin (shift in death) (%) = -1.6; inactive.
Knock-down of LOC440919 resulted in: two-siRNA summed score (-2 to +2) = 1; mean protection from cisplatin (shift in death) (%) = 13.7; inactive.
Against HNRNPL, the values are two-siRNA summed score (-2 to +2) = 1; mean protection from cisplatin (shift in death) (%) = 18.1; inactive.
LOC390736 scored two-siRNA summed score (-2 to +2) = 0; mean protection from cisplatin (shift in death) (%) = 13.8; inactive.
After knock-down of PAXBP1, the screen gave two-siRNA summed score (-2 to +2) = 0; mean protection from cisplatin (shift in death) (%) = 5.1; inactive.
ENTPD2 scored two-siRNA summed score (-2 to +2) = 1; mean protection from cisplatin (shift in death) (%) = 10.3; inactive.
Depletion of ASB18 came out at: two-siRNA summed score (-2 to +2) = 1; mean protection from cisplatin (shift in death) (%) = 18.2; inactive.
After knock-down of ADCK2, the screen gave two-siRNA summed score (-2 to +2) = 1; mean protection from cisplatin (shift in death) (%) = 2.9; inactive.
For HMGN4, the values are two-siRNA summed score (-2 to +2) = 1; mean protection from cisplatin (shift in death) (%) = 13.1; inactive.

4 entries from above, set out differently:
target	reagent no.	two-siRNA summed score (-2 to +2)	mean protection from cisplatin (shift in death) (%)	outcome
LOC390736	1	0	13.8	inactive
PAXBP1	1	0	5.1	inactive
ENTPD2	1	1	10.3	inactive
ASB18	1	1	18.2	inactive

The results go on.
CDH19 gave two-siRNA summed score (-2 to +2) = -1; mean protection from cisplatin (shift in death) (%) = -8.8; inactive.
Against PCDHA8, the values are two-siRNA summed score (-2 to +2) = 0; mean protection from cisplatin (shift in death) (%) = 2.4; inactive.
GALNT8 showed two-siRNA summed score (-2 to +2) = 0; mean protection from cisplatin (shift in death) (%) = -1.2; inactive.
WASL showed two-siRNA summed score (-2 to +2) = 0; mean protection from cisplatin (shift in death) (%) = -16.2; inactive.
For DCTN4, the values are two-siRNA summed score (-2 to +2) = 0; mean protection from cisplatin (shift in death) (%) = 2.7; inactive.
After knock-down of ZNF276, the record shows two-siRNA summed score (-2 to +2) = 0; mean protection from cisplatin (shift in death) (%) = -6.5; inactive.
Knock-down of NFYA resulted in: two-siRNA summed score (-2 to +2) = 0; mean protection from cisplatin (shift in death) (%) = 8.1; inactive.
Against PARD6G, the entry reads two-siRNA summed score (-2 to +2) = 1; mean protection from cisplatin (shift in death) (%) = 15.3; inactive.
After knock-down of INTS4 the results were two-siRNA summed score (-2 to +2) = 0; mean protection from cisplatin (shift in death) (%) = 3.1; inactive.
Knock-down of TENT4A came out at: two-siRNA summed score (-2 to +2) = 0; mean protection from cisplatin (shift in death) (%) = 3.2; inactive.
With knock-down of LOC441579, the screen gave two-siRNA summed score (-2 to +2) = 1; mean protection from cisplatin (shift in death) (%) = 15.5; inactive.
Knock-down of ROPN1L resulted in: two-siRNA summed score (-2 to +2) = 0; mean protection from cisplatin (shift in death) (%) = -1.6; inactive.
For PRSS38, the entry reads two-siRNA summed score (-2 to +2) = 1; mean protection from cisplatin (shift in death) (%) = 2.1; inactive.
For ADORA2A, the values are two-siRNA summed score (-2 to +2) = 0; mean protection from cisplatin (shift in death) (%) = 4.2; inactive.
With knock-down of SLC2A13, the screen gave two-siRNA summed score (-2 to +2) = 0; mean protection from cisplatin (shift in death) (%) = -0.1; inactive.
For REELD1 the deposit lists two-siRNA summed score (-2 to +2) = 0; mean protection from cisplatin (shift in death) (%) = -14.7; inactive.
For ATR the deposit lists two-siRNA summed score (-2 to +2) = 0; mean protection from cisplatin (shift in death) (%) = -1.4; inactive.
After knock-down of OR4M1, the record shows two-siRNA summed score (-2 to +2) = 0; mean protection from cisplatin (shift in death) (%) = 8.9; inactive.
After knock-down of TRA2A the results were two-siRNA summed score (-2 to +2) = 0; mean protection from cisplatin (shift in death) (%) = 11.1; inactive.
CH25H showed two-siRNA summed score (-2 to +2) = 0; mean protection from cisplatin (shift in death) (%) = -1; inactive.
